Results reported in PubChem BioAssay AID1439 (NMMLSC, 2008).
About 770 (0.35%) of roughly 220,000 compounds were called active. Inconclusive results, whose numbers are uncertain, are shown with a selection of clear calls. Rule as the data show it: active = binding response below about 49% or above about 150%; inconclusive = no clear call, values can overlap the other calls; inactive = in between.

Amino acid sequences for entries named in this document (tags omitted).
UniProt P09471, whole entry, looked up: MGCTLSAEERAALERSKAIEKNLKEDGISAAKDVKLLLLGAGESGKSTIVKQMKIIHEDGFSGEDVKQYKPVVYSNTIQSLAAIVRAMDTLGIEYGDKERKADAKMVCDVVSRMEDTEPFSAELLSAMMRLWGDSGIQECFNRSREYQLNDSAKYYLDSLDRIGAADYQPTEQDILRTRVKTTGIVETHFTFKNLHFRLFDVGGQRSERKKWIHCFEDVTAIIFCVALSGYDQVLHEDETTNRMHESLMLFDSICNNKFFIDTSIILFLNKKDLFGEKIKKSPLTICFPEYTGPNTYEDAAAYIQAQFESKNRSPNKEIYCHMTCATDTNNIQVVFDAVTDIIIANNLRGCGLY

Target: Guanine nucleotide-binding protein G(o) subunit alpha (Homo sapiens) (UniProt P09471)
Assay: RGS7-Galphao binding modulators, primary screen, biochemical, multiplexed bead flow cytometry (AID 1439);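 also: fluorescent Galphao held in activated GDP-AlF4 state binding bead-coupled RGS7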
Settings: at 10 µM, actives lie on both sides

Compound	binding response (% of control)
COc1ccc(C2=NOC(C(=O)Nc3cc(C)on3)C2)cc1OC (centres undefined)	inconclusive: 56.3%
O=C(CSc1ccncc1)Nc1ccc(S(=O)(=O)Nc2nccs2)cc1	inconclusive: 93.8%
CCOc1ccccc1N1CCN(Cc2cn[nH]c2-c2ccc(F)cc2)CC1	inconclusive: 123%
Cc1cc(NC(=O)c2ccc(Cl)c(S(=O)(=O)N3CCOCC3)c2)no1	inconclusive: 96.5%
Cc1cnc(C(=O)NC(C)CCc2ccccc2)cn1 (centres undefined)	inconclusive: 90%
Cc1ccc(C)c(S(=O)(=O)N2CCN(Cc3ccc(O)c4ncccc34)CC2)c1	inconclusive: 91.1%
Cc1nc2c(C)[n+](CC(=O)c3ccccc3)ccc2n1C	inconclusive: 102%
Cc1c(N2C(=O)CSC2c2ccco2)c(=O)n(-c2ccccc2)n1C (centres undefined)	inconclusive: 68.5%
Cc1nc(C)c(-c2ccn(S(=O)(=O)c3ccc(Cl)cc3)n2)o1	inconclusive: 75.1%
O=C(NNc1cc(Cl)ccc1Cl)C1CCC1	inconclusive: 106%
CC(C)Sc1nc2ccccc2n1CC(=O)O	inactive: 102%
CCC1CCCCN1C(=O)CCc1nnc(Cc2cc(OC)ccc2OC)o1 (centres undefined)	inconclusive: 76%
O=c1nccc(SCc2ccc(Cl)cc2Cl)[nH]1	inconclusive: 65.5%
Cc1cccn2cc(CCNC(=O)c3cccs3)nc12	inconclusive: -66.2%
COc1cccc(NC(=O)Nc2ccc(Br)cn2)c1	inconclusive: 117%
O=P(O)(CN1CCCCCC1)C1Cc2ccccc2C1	inconclusive: 57.1%
COc1cccc(C(=O)C2CCCN(Cc3cccc(-n4cccn4)c3)C2)c1 (centres undefined)	inconclusive: 56%
COc1cc(C(CC(=O)N2CCN(c3ccccc3)CC2)c2c(OC)cc(OC)c3ccc(=O)oc23)cc(OC)c1OC (centres undefined)	inconclusive: 77.2%
CCOC(=O)c1cnn(-c2ccc(C)cc2)c1N	inactive: 94.7%
CC(C)(C)C(=O)Nc1ccc(N2CCN(c3ccc(C(F)(F)F)cn3)CC2)nc1	inconclusive: 106%

Single values from the results shown.
binding response (% of control) with COc1cc(C(CC(=O)N2CCN(c3ccccc3)CC2)c2c(OC)cc(OC)c3ccc(=O)oc23)cc(OC)c1OC (centres undefined) is entered as inconclusive: 77.2%
binding response (% of control) with CCC1CCCCN1C(=O)CCc1nnc(Cc2cc(OC)ccc2OC)o1 (centres undefined) is entered as inconclusive: 76%

Remaining list, next part:

Compound	binding response (% of control)
CCOc1cc(CO)cc(Br)c1OCC(=O)Nc1ccccc1C	inconclusive: 107%
CCCCN(CCCC)S(=O)(=O)c1ccc(NC(=O)c2cccs2)cc1	inactive: 98.8%
CN(C)C(=O)c1nc2ccc(Cl)cn2c1CNCc1ccccc1OC(F)(F)F	inactive: 123%
CCN1CC(CN(C)Cc2cn(-c3ccc(C)cc3)nc2-c2cccc(C)c2)CC1=O (centres undefined)	inactive: 98.6%
O=C(CN1CCCCC1)n1c2ccccc2c2ccccc21	inconclusive: 99.6%
CC1=CCC2C(=O)N(c3ccc(C(=O)N4CCCCCC4)cc3)C(=O)C2C1 (centres undefined)	inactive: 105%
N#Cc1ccc(C(=O)Nc2nc(SCc3ccc(Cl)cc3)n[nH]2)cc1	inconclusive: 116%
NC(=O)[C@H]1CC2(CC(c3cccc(NC(=O)[C@H]4CCC(=O)N4)c3)=NO2)CN1C(=O)CC(c1ccccc1)c1ccccc1 (some centres undefined)	inconclusive: 84.1%
CC1(C)C2CCC1(C)C(OC(=O)c1ccccc1C(=O)O)C2 (centres undefined)	inconclusive: 86.7%
COc1ccc(C(C)=O)cc1CSc1ncccn1	inconclusive: 101%
O=C(O)c1cc(-c2cccc(Cl)c2)nc2nc(N3CCCCC3)sc12	inactive: 80.6%
CC(C)N1CCN(C2CSCCSC2)CC1CCO (centres undefined)	inconclusive: 121%
O=C(CN(C(=O)Cn1nnc(-c2ccccc2F)n1)c1cccc2c1CCCC2)NCc1ccccc1	inactive: 103%
Cn1cccc1CC(=O)N/N=C/c1ccc(Cl)c([N+](=O)[O-])c1	inconclusive: 101%
Cc1ccc(S(=O)(=O)c2cc3c(=O)n4cccc(C)c4nc3n(CC3CCCO3)c2=N)cc1C (centres undefined)	inconclusive: 110%
CCN(CC)CCOC(=O)c1ccc(NC(=O)c2cn(-c3ccccc3)nc2-c2cccs2)cc1	inactive: 106%
CCCCN(C)C(=S)Nc1ccc2nc(N3CCN(CC)CC3)cc(C)c2c1	inconclusive: 105%
N/C(=N\OC(=O)c1cccs1)C1(c2ccc(Cl)cc2Cl)CC1	inconclusive: 102%
CC(/C=C/c1ccccc1)=N/NC(=O)Cn1nnc(N)n1	inconclusive: 84.9%
CCOC(=O)c1cc(-c2ccc(OC)cc2)n[nH]1	inconclusive: 105%

Compound	binding response (% of control)
C/C(=N\NC1=NCCN1)c1ccc(N)c([N+](=O)[O-])c1	inconclusive: 88%
O=C(CCC(=O)NNC(=O)c1ccc([N+](=O)[O-])cc1)NCc1ccccc1	inconclusive: 102%
CC(=O)c1cnn(-c2ccc(Cl)cc2)c1C	inconclusive: 67.8%
Cn1c(N)c(C(=O)COC(=O)/C=C/c2ccc(S(=O)(=O)N3CCOCC3)cc2)c(=O)n(C)c1=O	inconclusive: 696%
CC#CC[N+](C)(C)CCCCCC	inconclusive: 106%
CC(=O)Oc1ccc2c(=O)c(Oc3ccccc3)c(C)oc2c1OC(C)=O	active: 42.6%
O=C(NCCCN1CCOCC1)c1ccccc1NS(=O)(=O)c1ccc(Br)cc1	inconclusive: 106%
COC(=O)C(=CC(=CN(C)C)C=C(C(=O)OC)C(=O)OC)C(=O)OC	inconclusive: 111%
COC(=O)C(C(=O)OC)c1ncccc1[N+](=O)[O-]	inconclusive: 142%
CCc1ccc(C(=O)COC(=O)c2ccc(Cl)nc2)cc1	inconclusive: 102%
CN(C)/N=C/c1ccc(N2CCOCC2)cc1	inconclusive: 103%
Cc1ccccc1NC(=S)N(Cc1cccs1)C1CCCCC1	inconclusive: 107%
Cc1cccc2sc(NC(=O)C3CCCO3)nc12 (centres undefined)	inactive: 98.6%
OCCNc1cc(Cl)ncn1	inconclusive: 101%
COc1cc(OC)c(OC)cc1CN1CCCC(C(=O)c2sccc2C)C1 (centres undefined)	inconclusive: 93%
CCOc1cc(CNn2cnnc2SCC(=O)NC(C)(C)C)ccc1OCC(=O)NC(C)(C)C	inactive: 101%
CCOC(=O)c1ccc(NC(=O)c2nc[nH]c2C(=O)N2CCC(C)CC2)cc1	inconclusive: 90.3%
CC(=O)NNC(=O)c1cc2sccc2s1	inconclusive: 106%
CC1=Nc2ccccc2N=C(NC(=O)CSC(=S)N2CCN(C)CC2)C1c1ccccc1 (centres undefined)	inconclusive: 150%
